Test results from publication PMC5959871, “Bacterial encapsulins as orthogonal compartments for mammalian cell engineering” (Nature Communications, 2018).
No constants are given. Whether binding was seen depends on the method and setting. For some assays here: In cells and extracts the contact can be indirect. Some binding calls cover weakened binding; strength is not graded here. For some assays here: Where a sequence is shown, tags or fusion partners need not be part of it.

Legend:
[1] = target: Secreted StrepTagII-modified encapsulin shell protein A with N-terminal human BM40 secretory signal peptide (Myxococcus xanthus) (UniProt Q1D6H4); assay: native gel or EMSA; Coomassie-stained Blue Native PAGE of cell culture supernatant of HEK293T cells
[2] = target: MxEncA^FLAG, encapsulin shell protein A from Myxococcus xanthus with C-terminal FLAG tag (Myxococcus xanthus) (UniProt Q1D6H4); assay: co-IP; HEK293T lysates (M-PER) of co-expressing cells (transient or stable clone) on anti-FLAG M2 beads, four washes, elution with FLAG peptide; silver-stained SDS-PAGE, western blot against FLAG or Myc
[3] = target: MxEncA^STII, StrepTagII-labeled encapsulin shell protein A, from the bicistronic construct ^MycC-IntP2A-A^STII (Myxococcus xanthus) (UniProt Q1D6H4); assay: pull-down; lysate (Buffer W, freeze-thaw) of HEK293T expressing ^MycC-IntP2A-A^STII on Strep-Tactin XT, elution with biotin; silver-stained SDS-PAGE

| Molecule | binding [1] | binding [2] | binding [3] |
| --- | --- | --- | --- |
| Secreted StrepTagII-modified encapsulin shell protein A with N-terminal human BM40 secretory signal peptide (from UniProt Q1D6H4 1-287) | binds |  |  |
| Encapsulin cargo protein B, non-tagged, from the multi-gene construct BCDP2A (natural protein, Myxococcus xanthus, UniProt Q1D6H3 1-158, looked up, MxEncB, ferritin-like native cargo protein of Myxococcus xanthus encapsulin, expressed from a single reading frame with C and D separated by P2A peptides; P2A skipping probably leaves residues of the P2A peptide on the proteins; also called MxEncB; EncB) MAGPPDSDLDDVARIRLVLARELETINEYEAYARASSNPEVRAFFQHLAAEEKEHVSEAVHMLRMLDSGQNDHFAKPFVPGHFQAAEAPAPATVHVPTPDGPAFSVNGRNGRLPSEPPTSLPPQRLLYGLPAPPPAVESHPLTVGSLRRGGGGSGSGR |  | binds |  |
| Encapsulin cargo protein C, non-tagged, from the multi-gene construct BCDP2A (natural protein, Myxococcus xanthus, UniProt Q1D3Y8 1-130, looked up, MxEncC, ferritin-like native cargo protein of Myxococcus xanthus encapsulin, expressed from a single reading frame with B and D separated by P2A peptides; P2A skipping probably leaves residues of the P2A peptide on the proteins; also called MxEncC; EncC) MPQTNPFHSLVPRKMTDTELARSIRLNIEAELDAINLYAAHIDATDNEDAKAILQHVMDEEREHAALFWELIARLDPEQAAHAKEAVEKYRLITSGASHEAVEAVGKEGAAPSPADVTPEKRLTVGSLRR |  | binds | binds |
| Encapsulin cargo protein D, non-tagged, from the multi-gene construct BCDP2A (natural protein, Myxococcus xanthus, UniProt Q1D9P3 1-109, looked up, MxEncD, native cargo protein of Myxococcus xanthus encapsulin, expressed from a single reading frame with B and C separated by P2A peptides; P2A skipping probably leaves residues of the P2A peptide on the proteins; also called MxEncD; EncD) MAKNSNPSAFDRDFGYLMPFLDRVAAAASDLEDASARAELTRLMVEEKARWQRIQELLGGAGGRGAAAPTPAREAPAEAPRLARGSADELHEAAPFATGLTVGSLRGSR |  | binds |  |
